PubChem BioAssay AID1053208 | Peter MacCallum Cancer Centre | 2014
Aim: 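Genes whose silencing cuts survival of bone tumour cells only with doxorubicin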 (primary screen). System: mouse osteosarcoma cells, early-passage culture from an engineered mouse model of fibroblastic bone tumour. Knock-down reagent: siRNA pool against mouse genes, 40 nM. Timing: about 120 h (48 h before drug, then 72 h with drug). Treatment: doxorubicin 100 nM for 72 h, roughly 30-40% inhibitory dose. Measured: 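Luminescent ATP signal taken as viability with or without 100 nM doxorubicin for 72 h; mean of two wells set against non-targeting siRNA and turned into robust z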. Reading the numbers: viability z-score with doxorubicin and doxorubicin viability vs non-targeting: higher = more viable cells under doxorubicin; viability z-score without drug: higher = more viable cells with knock-down alone; z-score of drug to no-drug ratio: higher = less drug sensitisation by knock-down. Hit rule: 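a pool counts as active when its viability z-score with doxorubicin is -2 or below and its z-score without drug lies between -2 and 2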.
This is a random part of about 17,000 deposited reagents. 788 of all reagents (4.7%) were called active. 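Calls rest on z-score classes alone; an extra cut-off of viability at most 70% of control was not applied to them.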 Unmarked entries are inactive.

no.	gene	combined z-score class	viability z-score with doxorubicin	viability z-score without drug	z-score of drug to no-drug ratio	doxorubicin viability vs non-targeting
1	Uqcr10 (GeneID 66152)	low cell count without drug only	0.34	-2.19	2.25	0.97
2	Spag11a (GeneID 78128)	no change with or without drug	-1.12	-0.51	-0.79	0.84
3	Smim8 (GeneID 66291)	high cell count without drug only	0.67	2.19	-0.56	1
4	Serpina3c (GeneID 16625)	no change with or without drug	0.34	0.51	0.11	0.97
5	Ferry3 (GeneID 28040)	no change with or without drug	-0.79	0.17	-0.79	0.87
6	Sh3bgrl2 (GeneID 212531)	no change with or without drug	0.45	-0.34	0.79	0.98
7	Ly6g2 (GeneID 223631)	no change with or without drug	0.56	0.84	0.11	0.99
8	Pkig (GeneID 18769)	no change with or without drug	0.45	0.51	0.22	0.98
9	Pla2g6 (GeneID 53357)	no change with or without drug	-0.67	0.17	-0.67	0.88
10	Mob3b (GeneID 214944)	no change with or without drug	0.45	-1.52	1.8	0.98
11	Or10al4 (GeneID 258624)	no change with or without drug	-0.11	-1.18	0.9	0.93
12	Poc5 (GeneID 67463)	no change with or without drug	0.67	1.18	0	1
13	Cd14 (GeneID 12475)	high cell count without drug only	0.67	2.19	-0.56	1
14	Ddx3y (GeneID 26900)	no change with or without drug	0.67	0.34	0.56	1
15	Mavs (GeneID 228607)	no change with or without drug	0.22	0	0.34	0.96
16	Ccl24 (GeneID 56221)	no change with or without drug	0.22	-0.84	1.01	0.96
17	Mical1 (GeneID 171580)	no change with or without drug	1.69	-0.51	2.25	1.09
18	Ldaf1 (GeneID 233806)	no change with or without drug	1.57	0.67	1.24	1.08
19	Or4c120 (GeneID 258893)	high cell count without drug only	1.12	2.19	-0.22	1.04
20	Lamb1 (GeneID 16777)	no change with or without drug	0	-0.51	0.45	0.94
21	Glis2 (GeneID 83396)	no change with or without drug	0.34	0	0.45	0.97
22	Elp4 (GeneID 77766)	no change with or without drug	0.45	1.18	-0.22	0.98
23	Cep164 (GeneID 214552)	no change with or without drug	1.01	-0.51	1.57	1.03
24	Cyp2j13 (GeneID 230459)	no change with or without drug	0	0.17	0	0.94
25	Ppp1r15a (GeneID 17872)	no change with or without drug	-0.22	-0.84	0.45	0.92
26	Zfp426 (GeneID 235028)	no change with or without drug	-0.67	-1.85	0.79	0.88
27	Nscme3l (GeneID 75555)	high cell count without drug only	1.8	2.02	0.56	1.1
28	Adam22 (GeneID 11496)	no change with or without drug	-0.45	-0.51	0	0.9
29	Ahr (GeneID 11622)	no change with or without drug	-0.79	-0.51	-0.34	0.87
30	Ndufa12 (GeneID 66414)	no change with or without drug	-0.22	0.34	-0.34	0.92
31	Gpalpp1 (GeneID 67467)	no change with or without drug	0.79	0.17	0.79	1.01
32	Cnksr2 (GeneID 245684)	no change with or without drug	0	-0.17	0.22	0.94
33	Iqcf3 (GeneID 68265)	no change with or without drug	0.79	-0.17	1.01	1.01
34	Ramac (GeneID 67148)	no change with or without drug	1.69	0.84	1.24	1.09
35	Nod2 (GeneID 257632)	no change with or without drug	0	1.69	-0.9	0.94
36	H3c7 (GeneID 260423)	no change with or without drug	-0.45	0.17	-0.45	0.9
37	Dnmbp (GeneID 71972)	no change with or without drug	1.35	0.51	1.12	1.06
38	Casp6 (GeneID 12368)	no change with or without drug	1.69	1.85	0.56	1.09
39	Rin1 (GeneID 225870)	no change with or without drug	0	1.85	-1.01	0.94
40	Lect2 (GeneID 16841)	no change with or without drug	1.12	1.85	0	1.04
41	Igsf11 (GeneID 207683)	no change with or without drug	-0.9	0.17	-0.9	0.86
42	Phip (GeneID 83946)	no change with or without drug	-0.45	-0.17	-0.22	0.9
43	Arhgef17 (GeneID 207212)	no change with or without drug	0	1.52	-0.9	0.94
44	Or5e1 (GeneID 258718)	no change with or without drug	-0.9	-0.84	-0.22	0.86
45	Foxj2 (GeneID 60611)	no change with or without drug	-0.22	0.84	-0.67	0.92
46	Kif1b (GeneID 16561)	no change with or without drug	-1.8	-0.17	-1.69	0.78
47	Pa2g4 (GeneID 18813)	no change with or without drug	0.22	-0.51	0.67	0.96
48	Plp2 (GeneID 18824)	no change with or without drug	0.45	-1.69	1.91	0.98
49	Clcn7 (GeneID 26373)	no change with or without drug	-1.12	0.84	-1.57	0.84
50	Or5ak23 (GeneID 258427)	no change with or without drug	0.22	-0.17	0.45	0.96

Limited to “doxorubicin viability vs non-targeting” (5 entries from above):
Serpina3c (GeneID 16625) = 0.97
Ferry3 (GeneID 28040) = 0.87
Sh3bgrl2 (GeneID 212531) = 0.98
Ly6g2 (GeneID 223631) = 0.99
Pkig (GeneID 18769) = 0.98
